Assay results as given in article PMC12596195, “Mei5–Sae3 stabilizes both active and inactive forms of Dmc1 filaments independently of its impact on ATP hydrolysis” (Nucleic Acids Research, 2025).

Chains of the proteins cited; added tags and fusions are not shown. A line that says so, or that is headed by a name, gives the form on record, which may keep a tag or linker.
Dmc1-E157D + Mei5-Sae3, one chain, as listed by the source E157D, chain 2 of 2: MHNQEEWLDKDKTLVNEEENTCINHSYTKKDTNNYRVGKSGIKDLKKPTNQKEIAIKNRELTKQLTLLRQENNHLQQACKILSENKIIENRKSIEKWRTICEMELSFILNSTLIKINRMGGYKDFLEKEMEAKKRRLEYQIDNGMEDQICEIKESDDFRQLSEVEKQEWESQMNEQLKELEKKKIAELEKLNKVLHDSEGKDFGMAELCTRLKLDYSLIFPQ

What was measured:
Test in all cases: fluorescence polarization
[1] = molecular target: T1, Dmc1-E157D (Saccharomyces cerevisiae) (UniProt P25453); details: ATP, 70 uM Ca2+, FP: 25 mM HEPES pH 7.5, 1 mM Mg2+, 1 mM ATP, 1 mM DTT, 50 mM NaCl (100 mM in Fig. 3), 100 ug/ml BSA, 0.02% NP-40, 70 uM Ca2+ or as indicated, 3 nM 84-nt ssDNA, recombinant protein, residues 1-334, protein details: N-terminal 6xHis, label: 5' Alexa Fluor 488, single-stranded DNA
T1 sequence (looked up): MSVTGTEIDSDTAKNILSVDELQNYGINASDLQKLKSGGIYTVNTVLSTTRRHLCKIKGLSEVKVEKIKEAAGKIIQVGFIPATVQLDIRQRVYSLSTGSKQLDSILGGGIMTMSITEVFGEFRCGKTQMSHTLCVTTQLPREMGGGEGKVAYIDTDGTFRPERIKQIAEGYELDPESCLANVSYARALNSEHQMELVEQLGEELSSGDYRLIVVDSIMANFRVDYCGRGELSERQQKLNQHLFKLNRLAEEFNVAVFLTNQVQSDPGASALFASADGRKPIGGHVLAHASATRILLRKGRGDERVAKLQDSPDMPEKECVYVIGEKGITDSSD

[2] = test system: Dmc1-E157D + Mei5-Sae3; details: ATP, 100 mM NaCl, 400 nM Mei5-Sae3: no impact on E157D binding; FP: 25 mM HEPES pH 7.5, 1 mM Mg2+, 1 mM ATP, 1 mM DTT, 50 mM NaCl (100 mM in Fig. 3), 100 ug/ml BSA, 0.02% NP-40, 70 uM Ca2+ or as indicated, 3 nM 84-nt ssDNA; recombinant protein; protein details: N-terminal 6xHis,N-terminal 6xHis on Mei5; label: 5' Alexa Fluor 488; single-stranded DNA
[3] = molecular target: T2, Dmc1-WT (Saccharomyces cerevisiae) (UniProt P25453); details: no nucleotide cofactor; FP: 25 mM HEPES pH 7.5, 1 mM Mg2+, 1 mM ATP, 1 mM DTT, 50 mM NaCl (100 mM in Fig. 3), 100 ug/ml BSA, 0.02% NP-40, 70 uM Ca2+ or as indicated, 3 nM 84-nt ssDNA; recombinant protein; residues 1-334; protein details: N-terminal 6xHis; label: 5' Alexa Fluor 488; single-stranded DNA
T2 sequence (looked up): T1 sequence (looked up) with D157E

[4] = test system: Dmc1-WT + Mei5-Sae3; details: no nucleotide cofactor, 400 nM Mei5-Sae3: affinity unchanged; FP: 25 mM HEPES pH 7.5, 1 mM Mg2+, 1 mM ATP, 1 mM DTT, 50 mM NaCl (100 mM in Fig. 3), 100 ug/ml BSA, 0.02% NP-40, 70 uM Ca2+ or as indicated, 3 nM 84-nt ssDNA; recombinant protein; protein details: N-terminal 6xHis,N-terminal 6xHis on Mei5; label: 5' Alexa Fluor 488; single-stranded DNA
[5] = test system: Mei5-Sae3 (Saccharomyces cerevisiae); details: 400 nM Mei5-Sae3, NaCl above 100 mM; FP: 25 mM HEPES pH 7.5, 1 mM Mg2+, 1 mM ATP, 1 mM DTT, 50 mM NaCl (100 mM in Fig. 3), 100 ug/ml BSA, 0.02% NP-40, 70 uM Ca2+ or as indicated, 3 nM 84-nt ssDNA; recombinant protein; protein details: N-terminal 6xHis on Mei5; label: 5' Alexa Fluor 488; single-stranded DNA

Question: What does the source list for “GGTAGCGGTTGGGTGAGTGGTGGGGAGGGTCGGGAGGTGGCGTAGAAACATGATAGGAATGTGAATGAATGAAGTACAAGTAAA [84 nt-ssDNA]”?
Answer: Kd ([1]; 100 mM NaCl): 2200 nM; binding result ([1]; 37 C): binds more weakly; binding result [2]: binds more weakly; binding result [3]: binds more weakly; binding result [4]: binds more weakly; binding result [5]: no binding

Substitutions are numbered along the chain they refer to. For part of these data: Negatives hold for the conditions tested. For part of these data: A weaker result is weaker than the reference pair of the same experiment. For part of these data: The exact form of at least one protein or probe is not confirmed. For part of these data: Tags and fusion partners may be left off the protein sequences shown.
